The list shows a part of the results.

Protein sequences, listed by entry. Tags and fused reporters are not part of them. Lines headed by an entry give the natural chain unless they say otherwise; changes in a name come on top.
UniProt O43405: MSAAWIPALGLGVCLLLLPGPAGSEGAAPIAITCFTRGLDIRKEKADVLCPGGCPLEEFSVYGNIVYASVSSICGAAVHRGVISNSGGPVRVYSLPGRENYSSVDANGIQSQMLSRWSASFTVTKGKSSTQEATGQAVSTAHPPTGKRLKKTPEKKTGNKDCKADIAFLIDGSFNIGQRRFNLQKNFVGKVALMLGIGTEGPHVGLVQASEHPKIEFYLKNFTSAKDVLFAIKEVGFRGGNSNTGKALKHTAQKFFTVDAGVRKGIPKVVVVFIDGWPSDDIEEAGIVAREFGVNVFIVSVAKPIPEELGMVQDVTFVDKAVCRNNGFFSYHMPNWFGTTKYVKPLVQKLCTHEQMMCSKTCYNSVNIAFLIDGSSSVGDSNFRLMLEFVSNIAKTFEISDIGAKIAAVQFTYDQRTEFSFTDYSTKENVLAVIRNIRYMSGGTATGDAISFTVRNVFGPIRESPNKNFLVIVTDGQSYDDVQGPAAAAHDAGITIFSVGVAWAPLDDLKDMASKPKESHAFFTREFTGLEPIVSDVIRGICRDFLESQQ
UniProt Q8N129: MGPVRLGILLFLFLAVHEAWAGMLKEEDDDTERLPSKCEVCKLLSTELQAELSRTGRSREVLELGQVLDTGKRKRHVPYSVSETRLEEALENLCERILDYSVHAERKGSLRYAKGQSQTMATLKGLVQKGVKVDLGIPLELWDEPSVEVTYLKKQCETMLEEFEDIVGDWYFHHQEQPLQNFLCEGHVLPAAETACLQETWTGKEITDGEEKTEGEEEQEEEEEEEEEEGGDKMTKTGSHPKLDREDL
UniProt Q9H0A8, whole entry, looked up: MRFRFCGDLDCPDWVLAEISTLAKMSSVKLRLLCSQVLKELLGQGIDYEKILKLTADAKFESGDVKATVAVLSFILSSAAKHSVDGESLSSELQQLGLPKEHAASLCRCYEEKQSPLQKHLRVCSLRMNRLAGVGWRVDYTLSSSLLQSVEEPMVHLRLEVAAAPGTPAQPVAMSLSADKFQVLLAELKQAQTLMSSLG
UniProt P09669, whole entry, looked up: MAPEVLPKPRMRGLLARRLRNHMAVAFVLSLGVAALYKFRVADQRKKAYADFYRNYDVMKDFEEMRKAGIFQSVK
UniProt Q12887: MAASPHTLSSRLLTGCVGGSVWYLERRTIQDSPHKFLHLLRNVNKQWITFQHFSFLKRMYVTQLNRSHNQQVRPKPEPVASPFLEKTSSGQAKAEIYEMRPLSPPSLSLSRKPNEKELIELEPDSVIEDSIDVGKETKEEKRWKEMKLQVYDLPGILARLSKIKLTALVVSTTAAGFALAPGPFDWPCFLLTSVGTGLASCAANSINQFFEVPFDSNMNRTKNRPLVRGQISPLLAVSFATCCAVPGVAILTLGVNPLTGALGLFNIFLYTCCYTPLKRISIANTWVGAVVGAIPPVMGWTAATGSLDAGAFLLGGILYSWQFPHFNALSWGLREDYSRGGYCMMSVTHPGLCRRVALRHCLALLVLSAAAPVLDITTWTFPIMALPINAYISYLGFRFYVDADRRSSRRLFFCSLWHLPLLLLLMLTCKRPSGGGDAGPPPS
UniProt Q96D53: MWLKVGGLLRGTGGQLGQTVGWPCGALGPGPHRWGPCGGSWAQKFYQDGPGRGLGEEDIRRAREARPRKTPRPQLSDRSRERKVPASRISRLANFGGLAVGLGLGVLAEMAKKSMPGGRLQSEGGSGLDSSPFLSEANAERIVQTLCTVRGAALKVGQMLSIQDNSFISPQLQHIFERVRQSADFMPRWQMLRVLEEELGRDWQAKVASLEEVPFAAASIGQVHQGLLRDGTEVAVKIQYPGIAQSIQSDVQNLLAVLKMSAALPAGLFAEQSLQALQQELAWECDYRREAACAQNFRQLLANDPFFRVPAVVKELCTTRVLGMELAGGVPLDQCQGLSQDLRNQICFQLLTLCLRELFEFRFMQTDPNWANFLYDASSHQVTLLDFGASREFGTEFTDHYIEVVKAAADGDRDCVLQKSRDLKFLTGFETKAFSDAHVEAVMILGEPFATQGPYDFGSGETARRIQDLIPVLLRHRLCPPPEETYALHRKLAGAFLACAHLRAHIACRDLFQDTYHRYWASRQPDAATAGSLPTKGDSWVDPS
UniProt Q9UBF2: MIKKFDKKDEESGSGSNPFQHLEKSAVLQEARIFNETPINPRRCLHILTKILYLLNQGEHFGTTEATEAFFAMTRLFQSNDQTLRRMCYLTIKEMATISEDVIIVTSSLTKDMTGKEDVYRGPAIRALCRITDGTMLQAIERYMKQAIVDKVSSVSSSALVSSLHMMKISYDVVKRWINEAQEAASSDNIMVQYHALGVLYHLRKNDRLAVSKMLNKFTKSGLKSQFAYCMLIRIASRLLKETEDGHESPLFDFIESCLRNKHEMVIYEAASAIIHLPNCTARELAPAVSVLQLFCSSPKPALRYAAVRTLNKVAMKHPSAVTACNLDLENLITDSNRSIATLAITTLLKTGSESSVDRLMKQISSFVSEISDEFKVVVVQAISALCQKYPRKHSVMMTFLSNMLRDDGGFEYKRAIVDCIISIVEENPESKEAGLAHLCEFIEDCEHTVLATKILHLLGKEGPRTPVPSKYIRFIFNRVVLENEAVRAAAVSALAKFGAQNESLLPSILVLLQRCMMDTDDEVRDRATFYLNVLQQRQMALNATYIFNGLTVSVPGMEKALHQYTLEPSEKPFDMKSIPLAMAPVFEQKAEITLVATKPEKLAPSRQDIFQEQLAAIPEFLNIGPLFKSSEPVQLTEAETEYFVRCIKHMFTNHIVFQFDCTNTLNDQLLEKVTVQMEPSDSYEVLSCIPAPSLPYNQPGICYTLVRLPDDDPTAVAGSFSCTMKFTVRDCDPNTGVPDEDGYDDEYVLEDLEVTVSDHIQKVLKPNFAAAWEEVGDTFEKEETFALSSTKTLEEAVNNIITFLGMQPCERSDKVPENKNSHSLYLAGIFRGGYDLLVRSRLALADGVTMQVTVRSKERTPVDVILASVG
UniProt A5YKK6, whole entry, looked up: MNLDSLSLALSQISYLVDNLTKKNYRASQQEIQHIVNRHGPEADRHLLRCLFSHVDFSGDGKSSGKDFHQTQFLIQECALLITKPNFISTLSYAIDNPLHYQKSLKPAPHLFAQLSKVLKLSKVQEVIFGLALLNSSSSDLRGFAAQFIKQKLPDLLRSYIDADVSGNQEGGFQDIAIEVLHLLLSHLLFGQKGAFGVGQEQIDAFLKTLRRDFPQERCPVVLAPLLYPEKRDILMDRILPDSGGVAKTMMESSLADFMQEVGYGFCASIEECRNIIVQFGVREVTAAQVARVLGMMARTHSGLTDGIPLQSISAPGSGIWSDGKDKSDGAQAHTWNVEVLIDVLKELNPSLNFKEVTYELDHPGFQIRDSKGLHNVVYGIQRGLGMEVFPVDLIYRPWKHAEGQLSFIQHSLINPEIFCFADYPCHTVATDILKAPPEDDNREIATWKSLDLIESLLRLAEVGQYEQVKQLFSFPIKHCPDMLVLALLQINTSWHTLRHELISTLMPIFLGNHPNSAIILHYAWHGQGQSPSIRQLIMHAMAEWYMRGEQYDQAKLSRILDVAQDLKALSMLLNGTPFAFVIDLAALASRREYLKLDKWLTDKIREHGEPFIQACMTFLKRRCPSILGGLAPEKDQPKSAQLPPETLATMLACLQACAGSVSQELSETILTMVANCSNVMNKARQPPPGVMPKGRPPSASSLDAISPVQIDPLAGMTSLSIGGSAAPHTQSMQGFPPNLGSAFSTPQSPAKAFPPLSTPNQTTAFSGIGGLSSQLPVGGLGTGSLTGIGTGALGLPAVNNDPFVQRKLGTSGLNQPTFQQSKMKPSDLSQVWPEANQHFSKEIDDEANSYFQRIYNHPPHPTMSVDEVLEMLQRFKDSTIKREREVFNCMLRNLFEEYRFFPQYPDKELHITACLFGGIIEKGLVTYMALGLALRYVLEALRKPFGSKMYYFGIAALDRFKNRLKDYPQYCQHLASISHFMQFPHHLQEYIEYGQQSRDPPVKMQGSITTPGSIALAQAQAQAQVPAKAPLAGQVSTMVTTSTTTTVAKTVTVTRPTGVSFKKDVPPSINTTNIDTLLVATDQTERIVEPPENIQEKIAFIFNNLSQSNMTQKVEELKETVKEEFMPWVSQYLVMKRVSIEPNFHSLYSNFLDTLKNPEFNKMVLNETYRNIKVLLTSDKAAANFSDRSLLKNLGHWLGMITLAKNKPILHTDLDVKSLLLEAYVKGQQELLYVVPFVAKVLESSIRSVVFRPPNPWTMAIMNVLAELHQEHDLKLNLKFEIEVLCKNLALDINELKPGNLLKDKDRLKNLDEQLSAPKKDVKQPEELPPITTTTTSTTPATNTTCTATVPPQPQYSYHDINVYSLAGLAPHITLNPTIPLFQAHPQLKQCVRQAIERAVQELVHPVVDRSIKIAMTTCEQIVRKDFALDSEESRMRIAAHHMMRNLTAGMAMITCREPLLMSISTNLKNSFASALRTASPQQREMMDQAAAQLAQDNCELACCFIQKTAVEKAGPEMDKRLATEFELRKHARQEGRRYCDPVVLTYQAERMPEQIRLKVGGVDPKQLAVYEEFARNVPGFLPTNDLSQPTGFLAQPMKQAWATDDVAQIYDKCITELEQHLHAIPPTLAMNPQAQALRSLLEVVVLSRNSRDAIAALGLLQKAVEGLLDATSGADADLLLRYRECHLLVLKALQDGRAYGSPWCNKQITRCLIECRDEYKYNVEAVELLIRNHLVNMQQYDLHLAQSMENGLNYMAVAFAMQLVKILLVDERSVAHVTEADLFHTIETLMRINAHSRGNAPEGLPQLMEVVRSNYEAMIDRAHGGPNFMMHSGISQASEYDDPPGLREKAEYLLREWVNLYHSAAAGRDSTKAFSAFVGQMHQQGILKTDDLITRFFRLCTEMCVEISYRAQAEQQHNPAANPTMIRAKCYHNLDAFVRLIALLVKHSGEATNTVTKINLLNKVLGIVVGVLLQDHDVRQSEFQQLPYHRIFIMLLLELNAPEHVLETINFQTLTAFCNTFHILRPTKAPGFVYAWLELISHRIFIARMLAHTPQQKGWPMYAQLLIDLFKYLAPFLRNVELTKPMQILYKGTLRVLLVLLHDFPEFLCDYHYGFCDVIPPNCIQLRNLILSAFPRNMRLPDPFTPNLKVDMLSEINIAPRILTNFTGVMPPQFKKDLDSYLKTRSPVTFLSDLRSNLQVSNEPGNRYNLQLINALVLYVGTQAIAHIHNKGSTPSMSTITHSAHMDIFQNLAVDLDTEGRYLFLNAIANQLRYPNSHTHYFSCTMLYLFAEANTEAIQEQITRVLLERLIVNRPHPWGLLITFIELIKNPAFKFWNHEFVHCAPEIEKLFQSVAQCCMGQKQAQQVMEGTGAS
UniProt Q9BWP8: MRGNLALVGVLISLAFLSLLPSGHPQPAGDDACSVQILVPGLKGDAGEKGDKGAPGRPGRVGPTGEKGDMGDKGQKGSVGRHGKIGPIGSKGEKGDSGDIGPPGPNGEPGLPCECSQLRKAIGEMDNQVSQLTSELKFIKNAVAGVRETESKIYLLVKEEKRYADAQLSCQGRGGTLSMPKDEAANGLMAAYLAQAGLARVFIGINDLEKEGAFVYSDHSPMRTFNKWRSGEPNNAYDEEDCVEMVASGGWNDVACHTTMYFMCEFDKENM
UniProt Q9Y6G5, whole entry, looked up: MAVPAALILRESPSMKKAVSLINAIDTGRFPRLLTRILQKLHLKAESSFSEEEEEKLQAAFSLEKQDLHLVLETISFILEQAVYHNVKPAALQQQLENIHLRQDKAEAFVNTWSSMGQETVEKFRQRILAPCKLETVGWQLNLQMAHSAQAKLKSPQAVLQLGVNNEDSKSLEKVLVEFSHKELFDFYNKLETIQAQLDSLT
UniProt O75208: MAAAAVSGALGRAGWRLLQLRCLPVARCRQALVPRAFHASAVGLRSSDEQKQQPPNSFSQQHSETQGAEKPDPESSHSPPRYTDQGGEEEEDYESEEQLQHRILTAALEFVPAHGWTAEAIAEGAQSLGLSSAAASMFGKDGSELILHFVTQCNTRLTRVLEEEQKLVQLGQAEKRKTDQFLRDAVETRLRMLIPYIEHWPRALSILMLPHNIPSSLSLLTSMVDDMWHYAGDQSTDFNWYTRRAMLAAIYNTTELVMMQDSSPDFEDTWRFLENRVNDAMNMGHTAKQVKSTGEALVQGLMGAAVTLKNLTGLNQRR
UniProt Q5TA50: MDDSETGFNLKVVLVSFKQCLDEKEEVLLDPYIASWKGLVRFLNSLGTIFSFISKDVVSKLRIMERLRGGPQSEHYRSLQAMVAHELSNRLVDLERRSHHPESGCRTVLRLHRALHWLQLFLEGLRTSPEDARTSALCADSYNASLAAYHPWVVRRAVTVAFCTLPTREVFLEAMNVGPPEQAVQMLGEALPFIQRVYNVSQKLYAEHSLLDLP
UniProt Q86VU5: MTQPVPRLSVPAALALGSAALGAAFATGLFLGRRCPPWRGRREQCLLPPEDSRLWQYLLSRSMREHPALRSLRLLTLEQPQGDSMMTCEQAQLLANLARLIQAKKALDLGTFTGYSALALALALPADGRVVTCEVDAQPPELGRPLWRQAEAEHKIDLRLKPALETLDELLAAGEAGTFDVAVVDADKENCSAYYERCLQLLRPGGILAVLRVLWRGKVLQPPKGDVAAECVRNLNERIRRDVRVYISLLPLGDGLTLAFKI

Compound in the first test: O=C1NC(=O)C(c2cnc3ccccn23)=C1c1cn2c3c(cc(F)cc13)CN(C(=O)N1CCCCC1)CC2
The test can be described thus: log2 fold change, soluble protein after heating vs DMSO (PISA); higher = thermal stabilisation; K562 lysate, 10 uM; active = over 0.2 and 3.5 SD of the protein, either way, in both replicates (recomputed). The method in brief: (§1)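 The values are log-two fold changes in thermal stability compared with solvent controls and come from duplicates. They were obtained by TMTpro 16plex LC-MS/MS, with channel sums equalised, on the supernatant after 21,000xg for 90 min. That supernatant came from crude K562 extract at 1 mg/mL protein treated with 10 μM compound for 30 min, heated for 3 min across 48°C-58°C, pooled and brought to 0.5% NP-40 at 4°C.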
For the target COCH (UniProt O43405), the log2 fold change is inactive: -0.003. The same measure, in the same setting: the value for CNPY4 (UniProt Q8N129) was inactive: 0.086; that for COMMD4 (UniProt Q9H0A8) was inactive: -0.054. Still for that read-out and setting: with COX6C (UniProt P09669) the figure was inactive: 0.003.

Compound in another test: c1cn2cc(-c3ccc4cn[nH]c4c3)nc(Nc3ccc(N4CCOCC4)cc3)c2n1 [entospletinib]
The description is as above. The method, boiled down: as §1
As for COX10 (UniProt Q12887), the log2 fold change is inactive: -0.049. On to COQ8B (UniProt Q96D53), for which the log2 fold change is inactive: -0.298.

Turning to COMMD3-BMI1 (UniProt R4GMX3), the log2 fold change is inactive: -0.005.

As for COMMD6 isoform 2 (UniProt Q7Z4G1), the log2 fold change is inactive: -0.072.

Consider COPS3 isoform 2 (UniProt Q9UNS2), for which the log2 fold change is inactive: 0.056. Still for that read-out and setting: the value for COQ7 (UniProt Q99807) was inactive: -0.037; that for COQ3 (UniProt Q9NZJ6) was inactive: -0.013; that for CNK3/IPCEF1 isoform 2 (UniProt G9CGD6) was inactive: 0.008. Same read-out and setting: with COPS3 (UniProt Q9UNS2) the figure was inactive: 0.044; with COPG2 (UniProt Q9UBF2), inactive: 0.016; with COPS2 (UniProt P61201), inactive: 0.14.

As for CNOT1 (UniProt A5YKK6), the log2 fold change is inactive: -0.023.

In the case of COLEC11 isoform 10 (UniProt Q9BWP8), the log2 fold change was inactive: 0.01.

For the target COMMD10 (UniProt Q9Y6G5), the log2 fold change is inactive: 0.015. Still for that read-out and setting: the value for COQ9 (UniProt O75208) was inactive: -0.012; that for CPTP (UniProt Q5TA50) was inactive: -0.106. As to COMTD1 (UniProt Q86VU5), the log2 fold change is inactive: 0.001.

In the case of CNNM1 (UniProt Q9NRU3), the log2 fold change is inactive: -0.01.

For the origin of these results see the supplement of paper PMC10849652.
